Reference: PubChem BioAssay AID662 (National Center for Advancing Translational Sciences (NCATS), 2007)
The list shows a part of the results. Shown are side measurements of this screen, not its main read-out; they come without a call. The list favours compounds with an active or inconclusive main result. The note in brackets gives the kind of curve behind each potency; many fits are weak.

Assay: Cell signaling CRE-BLA (Fsk stim)
Settings: CHO CRE-bla reporter (cAMP response element driving beta-lactamase), forskolin EC10, beta-lactamase ratio; measured here: 460 nm blue channel
How it was run: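 CRE-bla CHO reporter cells treated with compound titration plus EC10 NKH 477 (water-soluble forskolin), incubated 3 h at 37 °C; CCF4 loading 2 h at room temperature, 460/530 nm emission ratio read, AC50 values derived for positive or negative modulators.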

Compound	AC50
O=C(Nc1cccc(F)c1)N1CCCC2(CCN(C(=O)c3cc(C(F)(F)F)cc(C(F)(F)F)c3)CC2)C1	20 µM [rising, single point]
CCOc1nc(NCCc2ccc(OC)c(OC)c2)nc(NC(C)(C)CO)n1	12.6 µM [rising, partial curve, poor fit]
Cc1ccc(S(=O)(=O)N2CCN(C(=O)CSc3nnnn3C)C2)cc1	25.1 µM [rising, single point]
C=C(C)Cn1c(=O)c2c(nc3n2CCN3c2cccc(Cl)c2C)n(C)c1=O	5.01 µM [falling, full curve, poor fit]
CC1CCCCN1c1nnc(NC(=O)Cn2c(=O)oc3ccccc32)s1 (configuration not stated)	10 µM [rising, partial curve]
O=C1NC(=O)c2c(NC(=O)C3CCCO3)cccc21 (configuration not stated)	10 µM [rising, single point]
O=C(O)c1cncc(C(=O)O)c1	2 µM [rising, single point]
Cc1ccc(-c2nnc(SCC#N)n2N)cc1	3.98 µM [falling, single point]
CN(C)c1nc(N)nc(Cn2ccnc2)n1	1.58 µM [rising, full curve]
O=C(Nc1ccc(Cl)cc1)Nc1ccc2c(c1)N1CCN=C1S2	5.01 µM [falling, single point]
O=C(NC(Cc1ccc2c(c1)OCO2)C(=O)N1CCCC1C(=O)O)c1ccccc1 (configuration not stated)	0.398 µM [rising, full curve]
COc1ccc(-n2nc(C(=O)NCC(=O)NCc3ccco3)c3ccccc3c2=O)cc1	0.0794 µM [falling, partial curve, poor fit]
CCOc1ccc(CCNC(=O)Cc2nn[nH]n2)cc1OCC	0.398 µM [falling, full curve]
CC(n1cnnn1)C12CC3CC(CC(C3)C1)C2 (configuration not stated)	12.6 µM [rising, partial curve]
Cc1cccc(N2CSC3=C(C#N)C(c4ccc(C)o4)CC(=O)N3C2)c1 (configuration not stated)	1 µM [falling, full curve]
CCOC(=O)c1oc2nc(C(C)C)c3c(c2c1N)CCC3	12.6 µM [falling, partial curve]
COc1ccc(C(=O)CN2C(=O)C(C)(C)Oc3ccc(C(=O)N4CCCCCC4)cc32)cc1	1 µM [falling, partial curve]
CCC(Sc1nc(N)c(NC(=O)c2ccc(OC)c(OC)c2)c(=O)[nH]1)C(=O)OC (configuration not stated)	12.6 µM [rising, partial curve]
CN(C)C(=O)c1ccc(-c2nccc(Nc3ccc(F)cc3)n2)cc1	3.98 µM [rising, full curve, poor fit]
Cc1nc(SCC(=O)NCc2ccco2)nc(C)c1C	7.94 µM [falling, partial curve, poor fit]
Cc1nn2c(-c3ccccc3)nnc2c2ccccc12	10 µM [rising, partial curve]
Cc1cc(C)cc(N(CC(=O)NCC2CCCO2)C(=O)CN2C(=O)COc3ccccc32)c1 (configuration not stated)	0.794 µM [rising, partial curve, poor fit]
CCN(CC)C(=O)C1CCCN(Cc2ccccc2F)C1 (configuration not stated)	0.00316 µM [falling, full curve]

3 records picked at random from those above:
Compound	AC50
O=C(Nc1ccc(Cl)cc1)Nc1ccc2c(c1)N1CCN=C1S2	5.01 µM [falling, single point]
CCOc1ccc(CCNC(=O)Cc2nn[nH]n2)cc1OCC	0.398 µM [falling, full curve]
O=C(O)c1cncc(C(=O)O)c1	2 µM [rising, single point]

(more compounds)

Compound	AC50
CCOc1ccccc1NC(=O)Cn1cnc2c(cnn2-c2ccc(C)c(C)c2)c1=O	0.398 µM [rising, full curve]
O=C(NC1CCCCC1)c1ccc2c(=O)n(CC3CCCO3)c(=O)[nH]c2c1 (configuration not stated)	0.631 µM [rising, full curve]
COC(=O)c1sc(=S)n(-c2cc(F)ccc2F)c1N	10 µM [rising, partial curve, poor fit]
COc1ccc(OC)c(NC(=O)Cn2cc(C(=O)c3ccco3)c3ccccc32)c1	0.00316 µM [falling, full curve, poor fit]
CN1C(=O)c2cccc(N(C)C)c2C1=O	12.6 µM [rising, partial curve]
COc1cc(C2C3=C(Nc4ncnn42)c2ccccc2CC3)cc(OC)c1OC (configuration not stated)	0.398 µM [rising, full curve]
CCOC(=O)c1ccc(Oc2nc(OC)nc(N(C)C)n2)cc1	10 µM [rising, single point]
CCOC(=O)c1c(C)n(C)c2ccc(OCC(O)Cn3nc(C)cc3C)cc12 (configuration not stated)	10 µM [rising, partial curve]
Cc1cccc(-c2nnc3n2N=C(c2ccccc2Br)CS3)c1	0.00794 µM [rising, full curve, poor fit]
Cc1ccc2c(CSc3nnc(C4CC4)n3N)cc(=O)oc2c1	0.0501 µM [falling, full curve, poor fit]
CCC(Sc1nc2cc3c(cc2c(=O)n1Cc1ccco1)OCO3)C(=O)Nc1cccc(OC)c1 (configuration not stated)	1.26 µM [rising, partial curve]
C=CCSc1nc2ccccc2[nH]1	2.51 µM [rising, single point]
CCN(CC)S(=O)(=O)c1ccc(F)c(C(=O)NCCC(C)C)c1	10 µM [rising, single point]
Cc1ccccc1Cn1cc(NC(=O)c2cc3nc(-c4ccco4)cc(C(F)(F)F)n3n2)cn1	15.8 µM [rising, single point]
CCN(CC)CCCNC(=O)c1cc2c(=O)n(C)c3ccccc3c2n1C	10 µM [rising, partial curve]
CCOc1ccc(N(CC(=O)Nc2ccccc2C)S(=O)(=O)c2c(C)noc2C)cc1	3.98 µM [rising, full curve]
CC1CC(C)CN(c2oc(-c3ccccc3Cl)nc2C#N)C1 (configuration not stated)	10 µM [rising, partial curve]
CN(Cc1cccs1)S(=O)(=O)c1cccs1	0.126 µM [falling, single point]
CCOC(=O)CCCCC(=O)c1[nH]c(=O)[nH]c1CSc1nc(C)cc(C)n1	5.01 µM [falling, partial curve, poor fit]
Cc1cccc(NC(=O)Nc2ccc(C#N)cc2)n1	2.51 µM [falling, full curve]
COC(=O)C1=CO[C@@H](C)[C@H]2CN3CCc4c([nH]c5ccccc45)[C@@H]3C[C@H]12	12.6 µM [falling, single point]
CS(=O)(=O)N(CC(=O)N1CCCC1)c1ccc(Cl)c(Cl)c1	0.631 µM [falling, full curve]
COc1cc(C2C3CN(C)CC=C3C(C#N)=C(N)C2(C#N)C#N)ccc1OC(C)C (configuration not stated)	10 µM [rising, partial curve]

A stretch from the list above:
Compound	AC50
COC(=O)c1sc(=S)n(-c2cc(F)ccc2F)c1N	10 µM [rising, partial curve, poor fit]
COc1ccc(OC)c(NC(=O)Cn2cc(C(=O)c3ccco3)c3ccccc32)c1	0.00316 µM [falling, full curve, poor fit]

Carrying on.

Compound	AC50
CC(C)CC1C(C#N)=C(N)SC(N)=C1C#N	0.0398 µM [falling, full curve, poor fit]
COc1cccc(C(=O)OCCN2C(=O)c3ccccc3C2=O)c1OC	25.1 µM [rising, single point]
COc1ccc(C(=O)n2nc(-c3ccc(Cl)cc3)nc2N)cc1OC	2 µM [rising, partial curve]
Cc1ccc(N(C(=O)Cn2nnc3ccccc32)C(C(=O)NCc2ccco2)c2cccnc2)cc1 (configuration not stated)	31.6 µM [falling, single point]
COc1ccccc1C(=O)N1CCN(c2nc3cc(C)c(C)cc3cc2C#N)CC1	15.8 µM [rising, partial curve]
NC(=O)CN1C(=O)C2C3C=CC(C3)C2C1=O (configuration not stated)	0.1 µM [falling, full curve]
O=S(=O)(NC1CCN(Cc2ccccc2)CC1)c1cccc2cccnc12	0.126 µM [falling, full curve, poor fit]
CCOC(=O)c1[nH]c(C)c(C(=O)OCC(=O)N2CCCCC2C)c1C (configuration not stated)	12.6 µM [rising, single point]
O=C(O)C1CCCCC1C(=O)N1CC=C(c2ccccc2)CC1 (configuration not stated)	0.398 µM [falling, partial curve]
N#Cc1ccccc1-c1cncnc1NCc1cccnc1	5.01 µM [rising, partial curve]
CCOc1ccc2c(c1)c1nnc(SCC(=O)N3CCCCC3C)nc1n2C (configuration not stated)	0.398 µM [rising, full curve]
CC(C)C[C@H]1C(=O)N2CCC[C@@H]2[C@]2(O)O[C@](NC(=O)[C@@H]3C=C4c5cccc6[nH]c(Br)c(c56)C[C@H]4N(C)C3)(C(C)C)C(=O)N12	2.51 µM [rising, full curve, poor fit]
COc1ccccc1CNC(=O)C(CCSC)NS(=O)(=O)c1ccc2c(c1)oc(=O)n2C (configuration not stated)	0.0794 µM [falling, partial curve]
COc1ccc(C(=O)N2CCN(c3ccc(C)cc3)CC2)cc1OC	10 µM [rising, partial curve]
COc1ccc(Oc2ncc3nc(-c4cc(F)cc(F)c4)c(=O)n(C)c3n2)cc1	25.1 µM [rising, single point]
CC1CCC(C(=O)NC(C(=O)NCCN2CCC(C)CC2)C(C)C)CC1 (configuration not stated)	0.1 µM [falling, full curve]
COc1cc(OC)c(-c2nn3c(C4CCCCC4)nnc3s2)cc1OC	3.98 µM [rising, partial curve]
CCOc1ccc(OCC)c(Nc2cc(C)nc3nc(C)nn23)c1	7.94 µM [rising, partial curve]
N#CCSc1nc2scc(-c3cccs3)c2c(=O)n1CCc1ccccc1	0.501 µM [rising, full curve]
NC(N)=NC(=O)c1nc(Cl)c(N)nc1N	5.01 µM [rising, single point]
c1coc(CNc2ncnc3c2oc2ccccc23)c1	5.01 µM [rising, partial curve]
